Source: patent publication EP2294930A2
No constants are given. Whether binding was seen depends on the method and setting. Some results given as binding are weak or reduced against the parent protein; the word gives no strength.

Chains of the proteins cited; added tags and fusions are not shown. Residues count along the entry.
UniProt P00772, residues 27-266: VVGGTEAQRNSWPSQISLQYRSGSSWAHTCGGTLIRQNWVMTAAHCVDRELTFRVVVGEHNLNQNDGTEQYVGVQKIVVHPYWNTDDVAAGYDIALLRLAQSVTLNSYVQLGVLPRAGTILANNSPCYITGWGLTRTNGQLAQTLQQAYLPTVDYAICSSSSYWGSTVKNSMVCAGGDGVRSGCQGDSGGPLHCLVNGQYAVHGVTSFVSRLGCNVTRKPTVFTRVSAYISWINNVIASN
UniProt P01009, residues 25-418: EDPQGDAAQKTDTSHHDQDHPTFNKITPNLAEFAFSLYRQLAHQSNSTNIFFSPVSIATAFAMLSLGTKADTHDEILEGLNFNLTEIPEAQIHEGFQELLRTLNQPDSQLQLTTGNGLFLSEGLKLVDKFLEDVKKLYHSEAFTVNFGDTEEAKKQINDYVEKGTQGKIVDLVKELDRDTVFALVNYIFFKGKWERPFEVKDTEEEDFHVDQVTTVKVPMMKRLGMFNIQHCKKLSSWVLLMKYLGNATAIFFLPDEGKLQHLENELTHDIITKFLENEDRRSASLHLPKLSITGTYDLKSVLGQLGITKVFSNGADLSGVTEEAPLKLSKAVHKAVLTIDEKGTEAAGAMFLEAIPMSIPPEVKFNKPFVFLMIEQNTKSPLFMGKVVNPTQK

Assays:
[1] = biological target: porcine pancreatic elastase (porcine) (UniProt P00772); assay: band shift assay with equal moles of PPE, 37 C, 15 min; Coomassie stain and Western blot
[2] = biological target: porcine pancreatic elastase (porcine) (UniProt P00772); assay: band shift assay: AAT sample with 100 ng PPE, 37 C, 15 min; covalent-linked complex seen by SDS-PAGE and Western blot

“recombinant human alpha-1-antitrypsin produced in transgenic rice (from UniProt P01009 25-418)” was tested, and the binding [1] was “binds” and the binding [2] was “binds”.
